# Assay: Color fading of dyed hair tresses under UV exposure
# Conditions: for total color change ΔE: added to shampoo and conditioner, medium brown-colored hair, after 15 days of UV exposure
Compound,"panelists who chose the treated tresses as having retained the most color (Compound 1F shampoo, medium brown hair) [%]",total color change ΔE
"COc1cc(CC(C(C)=O)C(C)=O)cc(OC)c1OC [Compound 1F, 3-(3,4,5-trimethoxybenzyl)-2,4-pentanedione]",95.1,7.28
"COc1ccc(CC(C(C)=O)C(C)=O)cc1OC [Compound 1D, 3-(3,4-dimethoxybenzyl)-2,4-pentanedione]",,7.28

# From US11077035B2, “Hair treatment compositions and methods” (SYTHEON LIMITED, priority 2017, dated 2021)
